These are yes or no findings as the source states them, for the method shown. In cells and extracts the contact can be indirect. Here binding means that the protein was enriched with, or labelled near, the bait; the list need not be complete.

By UniProt entry, the sequences of proteins in these tests, tags left out.
UniProt Q86T03: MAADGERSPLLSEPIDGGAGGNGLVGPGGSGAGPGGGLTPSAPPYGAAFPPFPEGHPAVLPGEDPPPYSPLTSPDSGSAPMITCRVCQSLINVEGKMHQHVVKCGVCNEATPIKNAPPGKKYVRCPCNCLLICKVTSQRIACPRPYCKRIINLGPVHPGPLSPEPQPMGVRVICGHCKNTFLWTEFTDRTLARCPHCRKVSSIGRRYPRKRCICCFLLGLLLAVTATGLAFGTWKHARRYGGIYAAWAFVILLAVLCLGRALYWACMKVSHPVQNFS
UniProt Q9Y4G2: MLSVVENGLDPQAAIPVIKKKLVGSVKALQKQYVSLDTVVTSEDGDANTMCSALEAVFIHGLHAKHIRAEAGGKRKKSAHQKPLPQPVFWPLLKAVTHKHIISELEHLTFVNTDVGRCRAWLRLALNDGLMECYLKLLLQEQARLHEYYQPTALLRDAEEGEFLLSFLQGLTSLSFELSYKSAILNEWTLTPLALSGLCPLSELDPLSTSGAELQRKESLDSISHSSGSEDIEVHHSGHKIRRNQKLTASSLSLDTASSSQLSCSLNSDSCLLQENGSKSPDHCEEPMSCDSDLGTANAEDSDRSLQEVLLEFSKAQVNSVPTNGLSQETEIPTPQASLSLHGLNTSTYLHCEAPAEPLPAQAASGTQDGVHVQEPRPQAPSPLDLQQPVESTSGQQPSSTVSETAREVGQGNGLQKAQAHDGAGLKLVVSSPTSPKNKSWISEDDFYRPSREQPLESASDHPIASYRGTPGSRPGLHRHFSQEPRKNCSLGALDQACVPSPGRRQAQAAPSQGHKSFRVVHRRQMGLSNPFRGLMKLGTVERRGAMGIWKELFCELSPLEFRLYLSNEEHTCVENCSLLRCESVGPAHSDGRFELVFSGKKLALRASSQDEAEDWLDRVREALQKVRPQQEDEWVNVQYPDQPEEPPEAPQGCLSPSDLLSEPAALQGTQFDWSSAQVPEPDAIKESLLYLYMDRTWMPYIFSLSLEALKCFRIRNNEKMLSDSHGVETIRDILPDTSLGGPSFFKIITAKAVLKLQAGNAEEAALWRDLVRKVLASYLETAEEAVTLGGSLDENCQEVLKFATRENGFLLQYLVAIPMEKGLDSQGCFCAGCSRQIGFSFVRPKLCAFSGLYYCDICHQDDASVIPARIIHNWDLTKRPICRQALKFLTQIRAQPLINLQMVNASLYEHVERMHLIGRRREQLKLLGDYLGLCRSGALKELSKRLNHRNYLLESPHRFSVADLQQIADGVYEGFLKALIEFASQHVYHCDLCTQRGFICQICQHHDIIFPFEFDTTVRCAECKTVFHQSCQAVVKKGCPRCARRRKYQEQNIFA
UniProt P46934: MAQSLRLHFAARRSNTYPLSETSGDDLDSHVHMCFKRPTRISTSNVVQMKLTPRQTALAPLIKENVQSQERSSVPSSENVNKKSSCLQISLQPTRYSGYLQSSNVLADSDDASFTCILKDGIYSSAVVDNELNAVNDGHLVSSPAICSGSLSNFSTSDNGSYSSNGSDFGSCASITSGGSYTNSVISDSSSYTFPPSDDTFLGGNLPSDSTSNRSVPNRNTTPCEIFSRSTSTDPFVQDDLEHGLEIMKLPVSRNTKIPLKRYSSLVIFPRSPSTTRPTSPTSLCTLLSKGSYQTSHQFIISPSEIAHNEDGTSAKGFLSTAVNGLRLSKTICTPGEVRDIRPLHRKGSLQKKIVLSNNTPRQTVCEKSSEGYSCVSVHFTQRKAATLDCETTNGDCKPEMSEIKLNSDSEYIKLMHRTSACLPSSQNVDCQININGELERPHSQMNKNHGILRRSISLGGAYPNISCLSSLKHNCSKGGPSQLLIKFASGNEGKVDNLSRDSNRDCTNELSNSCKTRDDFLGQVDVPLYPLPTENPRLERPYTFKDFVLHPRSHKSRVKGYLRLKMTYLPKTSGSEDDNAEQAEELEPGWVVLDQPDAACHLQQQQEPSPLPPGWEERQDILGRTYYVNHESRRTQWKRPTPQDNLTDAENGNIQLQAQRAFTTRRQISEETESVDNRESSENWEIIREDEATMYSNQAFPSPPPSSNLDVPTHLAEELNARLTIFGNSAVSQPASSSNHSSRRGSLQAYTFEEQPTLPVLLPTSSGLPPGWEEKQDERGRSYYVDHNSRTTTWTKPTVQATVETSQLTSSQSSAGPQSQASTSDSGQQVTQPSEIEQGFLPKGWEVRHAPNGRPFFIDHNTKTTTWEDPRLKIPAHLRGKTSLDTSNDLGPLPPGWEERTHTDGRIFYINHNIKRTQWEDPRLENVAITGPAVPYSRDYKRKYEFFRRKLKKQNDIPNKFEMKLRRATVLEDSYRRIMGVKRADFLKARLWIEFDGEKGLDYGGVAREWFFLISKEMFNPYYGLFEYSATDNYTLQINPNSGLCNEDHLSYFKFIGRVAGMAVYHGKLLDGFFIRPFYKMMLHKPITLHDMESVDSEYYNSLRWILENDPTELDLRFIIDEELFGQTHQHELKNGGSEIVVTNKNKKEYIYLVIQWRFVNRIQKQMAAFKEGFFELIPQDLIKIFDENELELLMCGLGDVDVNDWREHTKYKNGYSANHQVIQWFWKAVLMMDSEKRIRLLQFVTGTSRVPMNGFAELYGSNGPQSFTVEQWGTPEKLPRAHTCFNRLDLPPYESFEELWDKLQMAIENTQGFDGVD
UniProt Q9HAU4: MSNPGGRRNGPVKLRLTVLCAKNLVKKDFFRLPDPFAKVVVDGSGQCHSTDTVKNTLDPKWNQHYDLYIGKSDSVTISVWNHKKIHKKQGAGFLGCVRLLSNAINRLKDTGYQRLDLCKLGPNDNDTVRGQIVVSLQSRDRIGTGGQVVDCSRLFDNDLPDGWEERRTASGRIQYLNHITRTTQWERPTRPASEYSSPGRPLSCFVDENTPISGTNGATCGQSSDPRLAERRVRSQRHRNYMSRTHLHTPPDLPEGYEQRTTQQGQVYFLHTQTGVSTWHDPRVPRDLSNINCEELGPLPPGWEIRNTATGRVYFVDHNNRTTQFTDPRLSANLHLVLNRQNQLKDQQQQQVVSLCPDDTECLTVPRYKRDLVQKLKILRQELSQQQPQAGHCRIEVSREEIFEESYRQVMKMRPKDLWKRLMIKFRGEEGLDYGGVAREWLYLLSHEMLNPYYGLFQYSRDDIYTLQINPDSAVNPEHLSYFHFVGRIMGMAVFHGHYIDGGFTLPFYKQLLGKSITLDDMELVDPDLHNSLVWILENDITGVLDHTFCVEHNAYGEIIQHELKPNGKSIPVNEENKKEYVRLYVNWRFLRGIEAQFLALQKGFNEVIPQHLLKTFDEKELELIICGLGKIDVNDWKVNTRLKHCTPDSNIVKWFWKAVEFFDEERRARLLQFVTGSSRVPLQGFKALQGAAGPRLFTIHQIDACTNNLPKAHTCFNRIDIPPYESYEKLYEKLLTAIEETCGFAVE
UniProt Q8WUM4: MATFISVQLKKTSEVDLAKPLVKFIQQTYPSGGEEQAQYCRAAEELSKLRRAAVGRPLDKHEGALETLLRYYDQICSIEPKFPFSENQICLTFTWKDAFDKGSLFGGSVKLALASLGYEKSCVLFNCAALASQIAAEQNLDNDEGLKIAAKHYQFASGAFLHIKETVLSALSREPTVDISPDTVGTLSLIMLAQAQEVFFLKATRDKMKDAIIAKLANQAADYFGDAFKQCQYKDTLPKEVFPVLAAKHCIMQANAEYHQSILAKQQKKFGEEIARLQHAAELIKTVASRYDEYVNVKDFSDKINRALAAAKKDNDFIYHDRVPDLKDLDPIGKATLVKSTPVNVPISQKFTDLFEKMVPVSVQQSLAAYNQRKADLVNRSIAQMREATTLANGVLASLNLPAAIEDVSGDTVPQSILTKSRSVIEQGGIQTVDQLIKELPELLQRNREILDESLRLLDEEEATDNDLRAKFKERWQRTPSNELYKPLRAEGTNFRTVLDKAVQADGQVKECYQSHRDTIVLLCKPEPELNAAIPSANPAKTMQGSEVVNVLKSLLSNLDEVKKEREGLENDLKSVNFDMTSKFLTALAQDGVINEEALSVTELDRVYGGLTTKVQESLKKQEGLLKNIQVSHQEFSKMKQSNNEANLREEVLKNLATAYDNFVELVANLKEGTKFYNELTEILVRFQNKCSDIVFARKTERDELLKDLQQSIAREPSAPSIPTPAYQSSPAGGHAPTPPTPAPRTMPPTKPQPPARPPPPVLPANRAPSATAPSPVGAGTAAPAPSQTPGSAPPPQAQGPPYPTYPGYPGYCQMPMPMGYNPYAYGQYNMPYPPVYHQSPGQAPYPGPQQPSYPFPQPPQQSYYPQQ
UniProt Q9NZZ3: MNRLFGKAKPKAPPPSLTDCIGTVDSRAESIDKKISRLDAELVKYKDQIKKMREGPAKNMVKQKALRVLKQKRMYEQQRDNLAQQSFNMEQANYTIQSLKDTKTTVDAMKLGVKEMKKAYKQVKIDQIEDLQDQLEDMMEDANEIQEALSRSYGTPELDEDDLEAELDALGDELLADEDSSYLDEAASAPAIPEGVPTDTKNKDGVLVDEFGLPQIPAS
UniProt O14964: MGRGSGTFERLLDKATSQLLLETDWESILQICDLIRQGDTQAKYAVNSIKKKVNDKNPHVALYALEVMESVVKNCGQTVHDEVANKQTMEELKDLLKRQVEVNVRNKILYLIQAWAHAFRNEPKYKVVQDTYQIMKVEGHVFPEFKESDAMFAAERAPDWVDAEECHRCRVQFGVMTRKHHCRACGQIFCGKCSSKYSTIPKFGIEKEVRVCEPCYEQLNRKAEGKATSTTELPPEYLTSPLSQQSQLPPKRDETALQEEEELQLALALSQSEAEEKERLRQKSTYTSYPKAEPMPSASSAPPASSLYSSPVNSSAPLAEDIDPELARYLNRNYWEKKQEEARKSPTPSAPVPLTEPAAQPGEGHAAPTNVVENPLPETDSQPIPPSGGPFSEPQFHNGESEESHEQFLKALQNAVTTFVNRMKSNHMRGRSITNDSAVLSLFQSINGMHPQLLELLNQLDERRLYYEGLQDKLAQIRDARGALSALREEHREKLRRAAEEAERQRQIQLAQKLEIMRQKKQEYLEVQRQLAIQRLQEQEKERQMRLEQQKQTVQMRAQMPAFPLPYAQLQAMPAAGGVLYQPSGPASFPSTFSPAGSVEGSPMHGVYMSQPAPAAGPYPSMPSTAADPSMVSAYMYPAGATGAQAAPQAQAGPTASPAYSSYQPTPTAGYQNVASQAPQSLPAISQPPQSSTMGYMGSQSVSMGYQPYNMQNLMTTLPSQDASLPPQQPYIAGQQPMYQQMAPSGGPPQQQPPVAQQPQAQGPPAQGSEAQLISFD
UniProt Q9HCE7: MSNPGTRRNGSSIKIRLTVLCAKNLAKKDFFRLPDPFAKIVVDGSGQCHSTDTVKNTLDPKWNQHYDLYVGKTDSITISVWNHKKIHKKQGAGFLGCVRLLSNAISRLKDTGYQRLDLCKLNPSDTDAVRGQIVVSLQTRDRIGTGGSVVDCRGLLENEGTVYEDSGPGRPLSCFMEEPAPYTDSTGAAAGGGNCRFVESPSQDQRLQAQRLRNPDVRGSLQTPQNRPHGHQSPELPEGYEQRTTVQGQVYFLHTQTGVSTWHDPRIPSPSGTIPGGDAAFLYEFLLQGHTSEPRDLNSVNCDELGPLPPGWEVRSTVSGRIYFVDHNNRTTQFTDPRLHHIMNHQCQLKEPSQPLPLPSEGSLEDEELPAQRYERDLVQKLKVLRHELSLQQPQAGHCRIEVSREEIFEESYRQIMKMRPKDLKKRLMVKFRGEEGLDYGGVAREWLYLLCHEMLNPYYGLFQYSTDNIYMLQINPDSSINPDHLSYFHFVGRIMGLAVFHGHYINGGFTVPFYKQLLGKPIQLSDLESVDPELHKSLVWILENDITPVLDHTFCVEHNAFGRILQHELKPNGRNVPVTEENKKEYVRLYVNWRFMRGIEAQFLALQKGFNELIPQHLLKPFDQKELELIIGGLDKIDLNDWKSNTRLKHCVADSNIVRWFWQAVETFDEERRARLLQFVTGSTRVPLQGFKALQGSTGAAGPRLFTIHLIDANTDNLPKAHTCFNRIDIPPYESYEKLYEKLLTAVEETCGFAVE

In this test the target is TMEM55B-GFP-WT full length (FL) (human) (UniProt Q86T03). The test is described as follows: affinity purification with mass spectrometry; U2OS cells infected with adenovirus expressing TMEM55B-WT-GFP or TMEM55B-P66A-GFP, with or without 300 uM NaAsO2 for 2 h; lysates immunoprecipitated with GFP beads, SDS-PAGE, gel bands digested, Orbitrap Fusion Lumos.
Turning to “PLEKHM1 (Pleckstrin homology domain family M member 1), endogenous (from UniProt Q9Y4G2 1-1056)”, the binding entry was “binds”. With “NEDD4 (from UniProt P46934 1-1319) (enzyme)”, the binding result was “binds”. “SMURF2 (from UniProt Q9HAU4 1-748) (enzyme)”: the binding entry is recorded as “binds”. With ALIX (from UniProt Q8WUM4 1-868), the binding result is listed as “binds”. In the case of CHMP5 (from UniProt Q9NZZ3 1-219) it was “binds”. Regarding HRS (from UniProt O14964 1-777), the binding entry is recorded as “binds”. On to “SMURF1 (from UniProt Q9HCE7 1-757) (enzyme)”, for which the binding entry is on record as “binds”.

These data come from paper PMC10761734.
